Earlier results as cited in US20070009531A1 (priority 2005, published 2007).
For at least one compound, name, drawing or mass did not settle the structure.

Test system: acute myelogenous leukemia
Details: patients with valspodar-modulated efflux; control arm 5 months, P=0.07; cited from earlier work

C/C=C/C[C@@H](C)C(=O)[C@H]1C(=O)N[C@@H](C(C)C)C(=O)N(C)CC(=O)N(C)[C@@H](CC(C)C)C(=O)N[C@@H](C(C)C)C(=O)N(C)[C@@H](CC(C)C)C(=O)N[C@@H](C)C(=O)N[C@H](C)C(=O)N(C)[C@@H](CC(C)C)C(=O)N(C)[C@@H](CC(C)C)C(=O)N(C)[C@@H](C(C)C)C(=O)N1C [valspodar]
median disease-free survival: 14 months
